The text below walks through data of article PMC5343486.

Results are given in words; binding and its absence hold for the method and conditions named. Binding seen in cells or lysates may run through a third protein. Some entries that bind do so weakly or less than the wild type. Tags and fused reporters may be left off the sequences shown.

Assay [1] deals with T1, RecA (E. coli (endogenous in MG1655-derived WT strains)), P0A7G6.
T1 chain: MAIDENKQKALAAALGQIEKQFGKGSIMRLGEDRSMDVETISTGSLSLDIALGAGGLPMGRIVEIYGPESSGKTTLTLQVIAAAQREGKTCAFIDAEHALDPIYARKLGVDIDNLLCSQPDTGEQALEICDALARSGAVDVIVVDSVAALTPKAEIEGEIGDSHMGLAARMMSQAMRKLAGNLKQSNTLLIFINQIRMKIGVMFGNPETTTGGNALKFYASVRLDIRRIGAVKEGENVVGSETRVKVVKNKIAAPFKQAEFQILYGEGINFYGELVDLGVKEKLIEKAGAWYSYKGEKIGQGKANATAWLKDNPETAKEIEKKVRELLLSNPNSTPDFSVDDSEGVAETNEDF
The experiment in a line: co-IP; immunoprecipitation with an anti RecA antibody from WT E. coli strains expressing RecN-Flag, RecN detected; cells with or without MMC. Conditions: remark: other sources report otherwise.

The target of assay [2] is T2, RecN-Flag (E. coli), P05824.
T2 chain: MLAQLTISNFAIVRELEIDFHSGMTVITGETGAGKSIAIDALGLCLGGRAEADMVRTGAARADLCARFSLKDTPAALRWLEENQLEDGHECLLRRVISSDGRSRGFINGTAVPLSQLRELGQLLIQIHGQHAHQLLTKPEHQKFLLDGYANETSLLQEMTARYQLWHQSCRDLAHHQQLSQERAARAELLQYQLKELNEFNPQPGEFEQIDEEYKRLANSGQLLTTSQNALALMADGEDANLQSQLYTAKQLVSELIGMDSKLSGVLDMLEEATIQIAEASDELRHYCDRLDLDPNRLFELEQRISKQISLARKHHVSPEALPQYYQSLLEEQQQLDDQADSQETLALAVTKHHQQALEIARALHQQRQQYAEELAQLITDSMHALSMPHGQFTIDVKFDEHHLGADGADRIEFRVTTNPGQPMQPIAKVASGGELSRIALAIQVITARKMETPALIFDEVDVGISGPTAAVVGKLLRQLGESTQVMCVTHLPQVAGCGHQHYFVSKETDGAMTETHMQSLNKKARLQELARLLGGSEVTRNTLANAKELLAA
Description: co-IP; immunoprecipitation with an anti Flag antibody from WT E. coli strains expressing RecN-Flag, RecA detected; with or without MMC and RecN-Flag induction. The settings on record: remark: other sources report otherwise.

B1: RecN-Flag, P05824 1-553 (protein)
chain: T2 chain
For the molecule B1, the binding entry in assay [1] is “binds”.

B2: RecA, P0A7G6 1-353 (protein)
chain: T1 chain
Regarding B2, the binding result in assay [2] was “binds”.
